Measurements from patent US7063965.
Results are given in words; binding and its absence hold for the method and conditions named. Some results given as binding are weak or reduced against the parent protein; the word gives no strength. One block for each substance: values may come before it.

The chains behind the UniProt entries cited, without tags or fusion partners. Where a name states a change or a piece, a line headed by the entry shows the natural chain unless it says otherwise. A line that says so, or that is headed by a name, gives the form on record, which may keep a tag or linker. Residues count along the entry.
UniProt Q02763: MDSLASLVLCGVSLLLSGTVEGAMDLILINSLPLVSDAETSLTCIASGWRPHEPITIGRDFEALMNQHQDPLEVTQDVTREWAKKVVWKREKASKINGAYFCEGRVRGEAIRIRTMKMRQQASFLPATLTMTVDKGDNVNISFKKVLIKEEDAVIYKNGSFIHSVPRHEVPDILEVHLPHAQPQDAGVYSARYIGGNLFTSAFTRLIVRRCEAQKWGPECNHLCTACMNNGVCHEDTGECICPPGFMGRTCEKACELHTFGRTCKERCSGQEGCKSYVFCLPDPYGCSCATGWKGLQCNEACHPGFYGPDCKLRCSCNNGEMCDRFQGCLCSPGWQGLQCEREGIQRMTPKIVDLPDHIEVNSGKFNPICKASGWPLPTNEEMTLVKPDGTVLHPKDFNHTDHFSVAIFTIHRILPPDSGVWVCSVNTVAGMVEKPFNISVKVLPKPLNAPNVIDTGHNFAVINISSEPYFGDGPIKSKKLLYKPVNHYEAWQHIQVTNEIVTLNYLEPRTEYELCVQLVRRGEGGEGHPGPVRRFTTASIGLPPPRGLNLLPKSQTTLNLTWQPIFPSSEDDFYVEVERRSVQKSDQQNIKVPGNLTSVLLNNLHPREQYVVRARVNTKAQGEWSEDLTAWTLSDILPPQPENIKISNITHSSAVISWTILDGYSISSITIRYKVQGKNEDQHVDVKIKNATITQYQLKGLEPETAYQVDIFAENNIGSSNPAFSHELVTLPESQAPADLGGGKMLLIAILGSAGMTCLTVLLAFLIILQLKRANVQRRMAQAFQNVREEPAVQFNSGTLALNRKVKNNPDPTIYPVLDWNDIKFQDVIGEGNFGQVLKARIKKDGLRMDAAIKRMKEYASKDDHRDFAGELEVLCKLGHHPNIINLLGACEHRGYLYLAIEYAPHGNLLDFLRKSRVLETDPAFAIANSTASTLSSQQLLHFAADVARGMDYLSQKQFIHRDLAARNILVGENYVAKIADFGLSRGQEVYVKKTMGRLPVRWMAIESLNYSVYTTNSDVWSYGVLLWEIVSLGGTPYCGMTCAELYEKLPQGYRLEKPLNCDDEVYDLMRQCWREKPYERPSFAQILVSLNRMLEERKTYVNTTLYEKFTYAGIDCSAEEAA
UniProt O15123: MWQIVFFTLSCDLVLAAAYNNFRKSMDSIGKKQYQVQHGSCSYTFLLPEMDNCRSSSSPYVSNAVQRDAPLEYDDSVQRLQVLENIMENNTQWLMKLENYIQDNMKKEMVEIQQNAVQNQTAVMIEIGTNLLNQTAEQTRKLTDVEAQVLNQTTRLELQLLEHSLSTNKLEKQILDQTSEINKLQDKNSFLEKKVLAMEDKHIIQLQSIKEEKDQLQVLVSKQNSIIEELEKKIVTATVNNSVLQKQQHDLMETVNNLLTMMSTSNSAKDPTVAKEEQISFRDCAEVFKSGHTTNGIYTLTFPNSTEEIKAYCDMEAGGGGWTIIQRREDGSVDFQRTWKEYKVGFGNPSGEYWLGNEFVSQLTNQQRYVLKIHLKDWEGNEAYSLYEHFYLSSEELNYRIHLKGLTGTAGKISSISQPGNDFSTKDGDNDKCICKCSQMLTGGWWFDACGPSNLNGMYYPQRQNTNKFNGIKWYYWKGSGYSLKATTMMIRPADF
UniProt O08538, residues 20-498: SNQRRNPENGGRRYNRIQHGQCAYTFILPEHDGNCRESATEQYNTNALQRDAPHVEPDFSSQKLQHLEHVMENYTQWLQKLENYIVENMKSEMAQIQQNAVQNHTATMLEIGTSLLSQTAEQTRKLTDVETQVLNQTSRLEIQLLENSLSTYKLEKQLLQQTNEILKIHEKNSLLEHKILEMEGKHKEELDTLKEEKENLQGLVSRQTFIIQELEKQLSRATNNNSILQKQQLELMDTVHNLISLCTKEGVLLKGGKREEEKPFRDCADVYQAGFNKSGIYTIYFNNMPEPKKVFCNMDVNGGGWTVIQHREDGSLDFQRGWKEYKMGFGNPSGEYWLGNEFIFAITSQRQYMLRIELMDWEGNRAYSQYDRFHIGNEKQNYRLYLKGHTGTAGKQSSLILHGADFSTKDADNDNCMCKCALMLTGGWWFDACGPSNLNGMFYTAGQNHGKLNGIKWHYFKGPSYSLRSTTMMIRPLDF
rat TIE-2 receptorbody (entire extracellular portion of the rat TIE-2 receptor fused to human IgG1 Fc) (A0ABK0L6J5, form named): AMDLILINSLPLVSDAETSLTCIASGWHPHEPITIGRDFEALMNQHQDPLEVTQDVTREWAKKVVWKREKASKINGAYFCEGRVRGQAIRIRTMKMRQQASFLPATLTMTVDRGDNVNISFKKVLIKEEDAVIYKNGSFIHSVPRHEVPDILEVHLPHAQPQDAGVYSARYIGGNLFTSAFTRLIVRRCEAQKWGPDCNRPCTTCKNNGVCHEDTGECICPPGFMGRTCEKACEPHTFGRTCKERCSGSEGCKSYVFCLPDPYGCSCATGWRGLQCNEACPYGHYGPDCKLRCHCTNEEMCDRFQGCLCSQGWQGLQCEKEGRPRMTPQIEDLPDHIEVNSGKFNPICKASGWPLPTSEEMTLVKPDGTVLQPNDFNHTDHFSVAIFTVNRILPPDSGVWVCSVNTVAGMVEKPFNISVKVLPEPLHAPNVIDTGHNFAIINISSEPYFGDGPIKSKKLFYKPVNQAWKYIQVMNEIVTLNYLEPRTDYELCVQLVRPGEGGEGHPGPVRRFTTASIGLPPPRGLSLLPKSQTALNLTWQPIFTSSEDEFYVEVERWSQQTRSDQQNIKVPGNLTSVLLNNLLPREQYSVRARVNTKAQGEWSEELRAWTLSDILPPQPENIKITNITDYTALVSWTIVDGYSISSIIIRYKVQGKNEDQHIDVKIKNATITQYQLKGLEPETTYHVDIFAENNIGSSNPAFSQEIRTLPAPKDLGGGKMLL

Experiments:
[1] = molecular target: rat TIE-2 receptorbody (entire extracellular portion of the rat TIE-2 receptor fused to human IgG1 Fc) (rat; human); test: SPR (BIAcore), medium preincubated with excess soluble TIE-2 RB
[2] = molecular target: rat TIE-2 receptorbody (entire extracellular portion of the rat TIE-2 receptor fused to human IgG1 Fc) (rat; human); test: SPR (BIAcore), 10x conditioned medium, TIE-2-specific binding activity
[3] = molecular target: rat TIE-2 receptorbody (entire extracellular portion of the rat TIE-2 receptor fused to human IgG1 Fc) (rat; human); test: SPR (BIAcore), 10x conditioned medium over immobilised rat TIE-2 IgG, with or without soluble receptorbody
[4] = molecular target: rat TIE-2 receptorbody (entire extracellular portion of the rat TIE-2 receptor fused to human IgG1 Fc) (rat; human); test: SPR (BIAcore), conditioned medium over immobilised rat TIE-2 RB, preincubation with 25 µg/ml soluble rat TIE-2 RB
[5] = molecular target: T1, human TIE-2 receptorbody (human) (UniProt Q02763+P01857); test: SPR (BIAcore), COS supernatant over immobilised human TIE-2 RB, with or without soluble receptorbody
[6] = molecular target: T1, human TIE-2 receptorbody (human); test: SPR (BIAcore), COS supernatant over immobilised human TIE-2 RB, preincubation with 25 µg/ml soluble human TIE-2 RB
[7] = molecular target: human TIE-2 ligand 2 (human) (UniProt O15123); test: staining of fixed, permeabilised transfected COS-7 cells with TIE-2 RB, anti-human IgG-alkaline phosphatase
[8] = molecular target: mouse TIE-2 ligand (clone pJFE14 encoding TIE-2 ligand, ATCC 75910) expressed in COS-7 cells (mouse) (UniProt O08538); test: as above

binding [1]: binds | binding [2]: binds | binding [3]: binds | binding [4]: binds
Substance: TIE-2 ligand in C2C12-ras conditioned medium (from UniProt O08538 20-498)

binding [5]: binds | binding [6]: binds
Substance: human TIE-2 ligand 2 (from UniProt O15123 19-496)

binding [7]: binds | binding [8]: binds
Substance: rat TIE-2 receptorbody (entire extracellular portion of the rat TIE-2 receptor fused to human IgG1 Fc) (from UniProt A0ABK0L6J5 19-740) (Fc fusion)
